# From paper PMC12667522
# These are yes or no findings as the source states them, for the method shown. For some assays here: In cells and extracts the contact can be indirect. Some binding calls cover weakened binding; strength is not graded here. For some assays here: Tags and fused reporters may be left off the sequences shown.
# T1: Tau tubulin kinase 2 (TTBK2), two-hybrid bait in pGBKT7 (mouse) (UniProt Q3UVR3)
# T1 sequence: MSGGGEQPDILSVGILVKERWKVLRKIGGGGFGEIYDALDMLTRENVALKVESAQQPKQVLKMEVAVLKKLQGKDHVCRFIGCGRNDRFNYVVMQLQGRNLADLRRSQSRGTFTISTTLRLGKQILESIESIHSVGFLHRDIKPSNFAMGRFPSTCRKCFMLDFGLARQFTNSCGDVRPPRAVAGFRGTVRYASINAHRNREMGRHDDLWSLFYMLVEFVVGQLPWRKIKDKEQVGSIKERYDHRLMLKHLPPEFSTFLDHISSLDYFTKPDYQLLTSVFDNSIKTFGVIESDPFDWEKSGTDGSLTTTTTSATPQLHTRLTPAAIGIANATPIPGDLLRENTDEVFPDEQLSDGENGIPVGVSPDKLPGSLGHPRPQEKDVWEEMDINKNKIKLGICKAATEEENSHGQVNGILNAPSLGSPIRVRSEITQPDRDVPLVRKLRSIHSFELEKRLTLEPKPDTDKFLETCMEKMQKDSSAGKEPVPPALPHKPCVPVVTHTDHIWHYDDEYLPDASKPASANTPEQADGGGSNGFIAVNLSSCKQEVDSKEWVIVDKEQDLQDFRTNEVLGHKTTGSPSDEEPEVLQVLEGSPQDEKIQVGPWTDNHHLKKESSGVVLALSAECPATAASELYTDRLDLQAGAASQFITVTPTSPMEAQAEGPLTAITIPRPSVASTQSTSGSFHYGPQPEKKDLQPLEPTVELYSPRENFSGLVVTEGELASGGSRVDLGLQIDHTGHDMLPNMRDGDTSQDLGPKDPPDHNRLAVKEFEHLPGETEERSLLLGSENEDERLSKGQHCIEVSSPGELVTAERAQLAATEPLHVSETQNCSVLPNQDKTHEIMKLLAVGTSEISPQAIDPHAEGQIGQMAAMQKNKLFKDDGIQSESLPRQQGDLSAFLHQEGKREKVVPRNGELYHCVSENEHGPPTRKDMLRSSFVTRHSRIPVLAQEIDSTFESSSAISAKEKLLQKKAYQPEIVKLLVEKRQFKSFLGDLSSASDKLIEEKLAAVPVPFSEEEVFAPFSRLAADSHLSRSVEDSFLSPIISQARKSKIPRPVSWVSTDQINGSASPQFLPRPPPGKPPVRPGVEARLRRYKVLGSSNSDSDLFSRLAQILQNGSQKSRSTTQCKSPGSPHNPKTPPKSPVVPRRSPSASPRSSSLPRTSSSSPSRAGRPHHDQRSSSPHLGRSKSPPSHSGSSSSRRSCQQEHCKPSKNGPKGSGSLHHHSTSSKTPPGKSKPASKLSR
# T2: HA-TTBK2 (mouse) (UniProt Q3UVR3)
# T2 sequence: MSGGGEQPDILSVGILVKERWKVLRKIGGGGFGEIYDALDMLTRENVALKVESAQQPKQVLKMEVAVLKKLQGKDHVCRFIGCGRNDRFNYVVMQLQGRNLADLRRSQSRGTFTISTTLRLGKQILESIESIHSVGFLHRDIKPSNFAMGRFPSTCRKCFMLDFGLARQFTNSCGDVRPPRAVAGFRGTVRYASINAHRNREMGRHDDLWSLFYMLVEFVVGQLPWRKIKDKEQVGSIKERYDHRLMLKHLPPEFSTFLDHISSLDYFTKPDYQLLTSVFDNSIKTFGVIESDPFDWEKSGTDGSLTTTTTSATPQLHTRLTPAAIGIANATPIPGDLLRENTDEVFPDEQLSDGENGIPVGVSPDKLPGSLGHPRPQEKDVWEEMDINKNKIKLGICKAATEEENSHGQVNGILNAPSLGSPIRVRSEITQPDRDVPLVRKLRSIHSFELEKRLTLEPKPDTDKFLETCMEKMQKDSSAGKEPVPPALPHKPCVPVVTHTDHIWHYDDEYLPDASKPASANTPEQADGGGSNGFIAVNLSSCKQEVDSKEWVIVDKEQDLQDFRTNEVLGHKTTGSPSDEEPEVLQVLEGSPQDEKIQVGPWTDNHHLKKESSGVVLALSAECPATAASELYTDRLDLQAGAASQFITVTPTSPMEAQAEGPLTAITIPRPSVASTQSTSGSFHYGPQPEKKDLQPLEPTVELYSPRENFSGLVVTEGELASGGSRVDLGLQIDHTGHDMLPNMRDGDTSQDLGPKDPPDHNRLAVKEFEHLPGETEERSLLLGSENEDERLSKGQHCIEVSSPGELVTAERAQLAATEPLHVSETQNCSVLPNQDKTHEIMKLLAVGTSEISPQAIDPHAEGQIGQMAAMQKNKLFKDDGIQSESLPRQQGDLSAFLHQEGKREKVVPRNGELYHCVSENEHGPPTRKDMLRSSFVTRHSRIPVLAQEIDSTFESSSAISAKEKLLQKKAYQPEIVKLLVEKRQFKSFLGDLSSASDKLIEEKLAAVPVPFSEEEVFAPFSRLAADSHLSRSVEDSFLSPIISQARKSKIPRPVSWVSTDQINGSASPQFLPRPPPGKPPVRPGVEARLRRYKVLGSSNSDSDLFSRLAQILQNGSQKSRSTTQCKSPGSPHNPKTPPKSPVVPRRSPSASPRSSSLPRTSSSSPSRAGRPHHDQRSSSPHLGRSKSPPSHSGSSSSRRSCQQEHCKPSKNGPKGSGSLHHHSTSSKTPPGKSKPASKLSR
# Tests used:
# [1] = molecular target: T1, Tau tubulin kinase 2 (TTBK2), two-hybrid bait in pGBKT7 (mouse); experiment: two-hybrid; TTBK2 in pGBKT7 as bait, candidates in pGADT7 as prey; co-transformed into yeast AH109; SD-Leu-Trp-His plates, 30 °C, 2-3 days, SD-Leu-Trp plates as controls
# HA-TTBK2 (mouse) = molecular target: T2, HA-TTBK2 (mouse); experiment: co-IP; reciprocal co-IP of HA-TTBK2 and Flag-IFT88 in HEK293T cells
binding [1],binding (HA-TTBK2 (mouse)),Binder
binds,,"IFT88, two-hybrid prey in pGADT7 (protein, UniProt Q61371 1-824) MENVHLAPETDEDDLYSGFNDYNPAYDTEELENDTGFQQAVRTSHGRRPPVTAKIPSTAVSRPIATGYGSKTSLTSSMGRPMTGTIQDGVARPMTAVRAAGFSKAALRGSAFDPLGQSRGPAPPLEAKNEDSPEEKIRQLEKKVNELVEESCIANSCGDLKLALEKAKDAGRKERVLVRQREQVTSPENINLDLTYSVLFNLASQYSANEMYAEALNTYQVIVKNKMFSNAGRLKVNMGNIYLKQRNYSKAIKFYRMALDQIPSVHKEMRIKIMQNIGITFIKTGQYSDAINSFEHIMSMAPSLKAGFNLILSCFAIGDREKMKKAFQKLIAVPLEIDEDDKYISPSDDPHTNLLIEAIKNDHLRQMERERKAMAEKYIMTAAKLIAPVIEASFAVGYNWCVEVVKASQYVELANDLEINKAITYLRQKDFNQAVDTLKMFEKKDSRVKSAAATNLSFLYYLENEFAQASSYADLAVNSDRYNPSALTNKGNTVFANGDYEKAAEFYKEALRNDSSCTEALYNIGLTYKKLNRLDEALDSFLKLHAILRNSAQVLCQIANIYELMEDPNQAIEWLMQLISVVPTDSQALSKLGELYDSEGDKSQAFQYYYESYRYFPSNIEVIEWLGAYYIDTQFCEKAIQYFERASLIQPTQVKWQLMVASCFRRSGNYQKALDTYKEIHRKFPENVECLRFLVRLCTDIGLKEVQEYATKLKRLEKMKEMREQRIKSGRDSSGGSRSKREGSAGSDSGQNNSASSKSERLSAKLRALPGTDEPYESSGNKEIDASYVDPLGPQIERPKTAAKKRIDEDDFADEELGDDLLPE"
,binds,"Flag-IFT88 (protein, UniProt Q61371 1-824) MENVHLAPETDEDDLYSGFNDYNPAYDTEELENDTGFQQAVRTSHGRRPPVTAKIPSTAVSRPIATGYGSKTSLTSSMGRPMTGTIQDGVARPMTAVRAAGFSKAALRGSAFDPLGQSRGPAPPLEAKNEDSPEEKIRQLEKKVNELVEESCIANSCGDLKLALEKAKDAGRKERVLVRQREQVTSPENINLDLTYSVLFNLASQYSANEMYAEALNTYQVIVKNKMFSNAGRLKVNMGNIYLKQRNYSKAIKFYRMALDQIPSVHKEMRIKIMQNIGITFIKTGQYSDAINSFEHIMSMAPSLKAGFNLILSCFAIGDREKMKKAFQKLIAVPLEIDEDDKYISPSDDPHTNLLIEAIKNDHLRQMERERKAMAEKYIMTAAKLIAPVIEASFAVGYNWCVEVVKASQYVELANDLEINKAITYLRQKDFNQAVDTLKMFEKKDSRVKSAAATNLSFLYYLENEFAQASSYADLAVNSDRYNPSALTNKGNTVFANGDYEKAAEFYKEALRNDSSCTEALYNIGLTYKKLNRLDEALDSFLKLHAILRNSAQVLCQIANIYELMEDPNQAIEWLMQLISVVPTDSQALSKLGELYDSEGDKSQAFQYYYESYRYFPSNIEVIEWLGAYYIDTQFCEKAIQYFERASLIQPTQVKWQLMVASCFRRSGNYQKALDTYKEIHRKFPENVECLRFLVRLCTDIGLKEVQEYATKLKRLEKMKEMREQRIKSGRDSSGGSRSKREGSAGSDSGQNNSASSKSERLSAKLRALPGTDEPYESSGNKEIDASYVDPLGPQIERPKTAAKKRIDEDDFADEELGDDLLPE"
